Data as given in PubChem BioAssay AID1259424 (University of Nebraska Medical Center, 2018)
This is one part, drawn at random, of about 14,000 reagents. 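Higher correlation or smaller distance means closer resemblance to KSR1 loss; control wells, including KSR1 knockdowns, recur on many plates.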 Further read-outs or replicates are left out here. The record does not give: the time to read-out.

Assay: 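Find knockdowns that reproduce the expression shifts seen after KSR1 loss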 (primary screen)
Cells: human HCT116 colon cancer cells
Reagent: siRNA pool against human genes, 50 nM
Measured: 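Six signature mRNAs by branched-DNA multiplex assay, scaled to two housekeeping genes and non-targeting median, log2; matched to mean KSR1 knockdown profile by Pearson correlation and euclidean distance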
Scale: mean correlation with KSR1 profile and KSR1 correlation: higher = expression change more like KSR1 knockdown; mean distance from KSR1 profile: higher = expression change less like KSR1 knockdown

gene symbol	mean correlation with KSR1 profile	mean distance from KSR1 profile	KSR1 correlation, replicate 1	KSR1 correlation, replicate 2
CIAPIN1	-0.251	2.99	-0.533	0.0962
DCAF11	-0.106	2.93	-0.451	-0.00339
MMADHC	0.000796	1.23	-0.261	-0.0851
OR2F1	-0.022	3.25	0.0738	0.0731
FUT8	0.0947	1.6	-0.0535	0.639
FJX1	0.37	1.36	0.606	0.508
GGPS1	0.631	2.75	0.733	0.519
ZBTB40	-0.544	2.09	-0.449	-0.804
ADGRE5	0.919	0.627	0.886	0.888
NPPC	0.108	1.45	0.291	0.266
CD164	-0.0353	2.63	0.124	-0.427
CA12	-0.61	3.05	-0.581	-0.598
EFCAB7	0.49	1.98	0.324	0.522
CD3G	-0.294	1.35	0.0416	-0.387
NOC3L	-0.327	1.96	-0.363	-0.325
CASP9	-0.71	2.1	-0.666	-0.778
CDV3	-0.661	2.18	-0.606	-0.587
PARM1	0.842	0.689	0.842	0.679
TMEM175	-0.255	2.33	-0.373	-0.18
SSH2	0.0843	1.36	0.156	-0.346
NECTIN4	-0.257	2.62	-0.162	-0.509
PPP1R10	0.107	2.48	0.259	0.342
WSB1	-0.137	2.62	0.145	-0.277
UBXN8	-0.441	2.7	-0.258	-0.504
CYTH3	-0.535	2.09	-0.742	-0.341
KLHL25	0.0502	0.975	0.15	-0.581
PKM	0.617	3.3	0.681	0.678
NOVA1	0.582	0.985	0.626	0.346
GLYR1	0.069	1.8	0.129	-0.0926
PLEKHF2	0.19	1.54	0.242	0.734
HMGB1	0.466	1.88	0.263	0.534
MMUT	0.495	2.63	0.477	0.444
TCEAL3	-0.322	3.82	-0.477	-0.236
EFTUD2	-0.479	2.26	-0.664	-0.0417
PCYOX1	0.23	2.29	0.0573	0.372
OR1C1	0.182	1.94	0.0881	0.232
FAABTP	-0.13	1.52	-0.135	-0.285
MAGEE1	-0.473	2.96	-0.424	-0.29
PRKAB1	-0.103	4.8	-0.24	-0.36
BHLHE22	-0.375	1.91	-0.529	-0.724
ZNF556	0.731	1.27	0.619	0.406
SLC2A9	-0.616	1.92	-0.0555	-0.63
CA5B	-0.31	2.03	-0.0532	-0.465
FEZF2	0.544	1.17	0.574	0.429
MTCL1	-0.795	3.04	-0.703	-0.711
SLC39A4	-0.43	2.37	-0.383	-0.516
BNIP3	0.323	3.33	0.331	0.39
CERT1	-0.188	2.64	-0.0479	-0.243
NCAM1	-0.0524	2.16	-0.0215	-0.148
HBG1	0.47	0.913	0.458	0.38

Sorted by “KSR1 correlation, replicate 1” (descending): some entries from above
gene symbol	mean correlation with KSR1 profile	mean distance from KSR1 profile	KSR1 correlation, replicate 1	KSR1 correlation, replicate 2
ADGRE5	0.919	0.627	0.886	0.888
EFCAB7	0.49	1.98	0.324	0.522
NPPC	0.108	1.45	0.291	0.266
CD164	-0.0353	2.63	0.124	-0.427
CD3G	-0.294	1.35	0.0416	-0.387
NOC3L	-0.327	1.96	-0.363	-0.325
ZBTB40	-0.544	2.09	-0.449	-0.804
CA12	-0.61	3.05	-0.581	-0.598
